For at least one entry, the source does not settle the construct or the ends of the probe. For part of these data: A negative result means that nothing was seen under these conditions. Where a protein sequence is shown, tags need not be part of it.

Data set [1] concerns the target T1, VvMYB14 (UniProt A8VPW3).
T1 sequence (looked up, limits assumed): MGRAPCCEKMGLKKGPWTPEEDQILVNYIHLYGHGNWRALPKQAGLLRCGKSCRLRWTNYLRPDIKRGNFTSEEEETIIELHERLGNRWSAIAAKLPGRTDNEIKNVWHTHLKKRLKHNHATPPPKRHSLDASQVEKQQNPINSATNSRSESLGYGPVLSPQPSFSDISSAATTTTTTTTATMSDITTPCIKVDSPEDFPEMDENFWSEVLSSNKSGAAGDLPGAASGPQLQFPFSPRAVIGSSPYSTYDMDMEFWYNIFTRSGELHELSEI
The data set can be described thus: EMSA. Particulars: EMSA kit (Thermo Fisher Scientific) per manual; pH and temperature not stated; recombinant protein; protein details: His (pEASY-E1); label: biotin. (In general: Mobility shift assays separate free from complexed probe on a gel.)

The target in data set [2] is T1, VvMYB14. The data set can be described thus: competition with a labelled probe. Particulars: EMSA kit (Thermo Fisher Scientific) per manual, pH and temperature not stated, recombinant protein, protein details: His (pEASY-E1).

For “CATGTCCCTGTGAACCTAACGTAAGGCA (double strand) [MBS probe (VvACS1 promoter)]”, the binding result with VvMYB14 [1] is given as “binds”.

As for “CATGTCCCTGTGTACATATCGTAAGGCA (double strand) [mutant MBS probe / competitor]”, the binding result with VvMYB14 [2] (mutated competitor did not compete with labeled MBS probe, label: biotin when used as probe, unlabeled as competitor) is “no binding”.

As for “CATGTCCCTGTGAACCTAACGTAAGGCA (double strand) [MBS unlabeled competitor]”, the binding result with VvMYB14 [2] (increasing unlabeled competitor gradually reduced binding of labeled MBS probe) was “binds”.

The record behind these values is PMC7917092.
